This passage reports binding results from article PMC3799625.

Protein sequences, listed by entry. Tags and fused reporters are not part of them. Residues count along the entry.
UniProt P25445, residues 26-335: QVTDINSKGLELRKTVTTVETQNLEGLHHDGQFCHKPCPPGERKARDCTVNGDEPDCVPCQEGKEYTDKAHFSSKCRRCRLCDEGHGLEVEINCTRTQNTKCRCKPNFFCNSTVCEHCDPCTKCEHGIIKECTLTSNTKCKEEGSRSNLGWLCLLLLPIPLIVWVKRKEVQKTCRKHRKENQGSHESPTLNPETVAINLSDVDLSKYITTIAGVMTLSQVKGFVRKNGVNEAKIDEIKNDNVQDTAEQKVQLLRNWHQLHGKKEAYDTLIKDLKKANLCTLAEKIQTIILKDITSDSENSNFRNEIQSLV
UniProt Q13158: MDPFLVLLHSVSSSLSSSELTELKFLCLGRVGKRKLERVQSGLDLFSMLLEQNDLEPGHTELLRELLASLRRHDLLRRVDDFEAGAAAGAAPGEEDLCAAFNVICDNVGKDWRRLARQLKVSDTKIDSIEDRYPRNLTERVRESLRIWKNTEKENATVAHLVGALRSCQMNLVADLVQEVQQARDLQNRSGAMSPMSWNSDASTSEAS
UniProt Q14790: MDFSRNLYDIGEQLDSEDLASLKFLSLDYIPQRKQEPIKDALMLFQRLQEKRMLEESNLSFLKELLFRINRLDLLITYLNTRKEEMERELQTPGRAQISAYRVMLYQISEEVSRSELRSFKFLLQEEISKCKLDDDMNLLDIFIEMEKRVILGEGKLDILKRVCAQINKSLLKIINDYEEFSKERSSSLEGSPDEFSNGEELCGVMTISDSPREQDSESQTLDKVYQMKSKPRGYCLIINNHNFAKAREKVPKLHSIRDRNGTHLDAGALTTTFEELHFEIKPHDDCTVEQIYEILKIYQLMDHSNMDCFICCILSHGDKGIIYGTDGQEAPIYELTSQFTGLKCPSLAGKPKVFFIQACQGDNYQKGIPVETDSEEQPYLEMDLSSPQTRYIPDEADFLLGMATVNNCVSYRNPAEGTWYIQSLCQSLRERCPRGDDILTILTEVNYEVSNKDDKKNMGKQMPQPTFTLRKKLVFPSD

These are yes or no findings as the source states them, for the method shown. In cells and extracts the contact can be indirect. Some results given as binding are weak or reduced against the parent protein; the word gives no strength.

For this test, the target named is T1, Flotillin-2/reggie-1 (human (endogenous in Beas2B)) (UniProt Q14254).
T1 sequence: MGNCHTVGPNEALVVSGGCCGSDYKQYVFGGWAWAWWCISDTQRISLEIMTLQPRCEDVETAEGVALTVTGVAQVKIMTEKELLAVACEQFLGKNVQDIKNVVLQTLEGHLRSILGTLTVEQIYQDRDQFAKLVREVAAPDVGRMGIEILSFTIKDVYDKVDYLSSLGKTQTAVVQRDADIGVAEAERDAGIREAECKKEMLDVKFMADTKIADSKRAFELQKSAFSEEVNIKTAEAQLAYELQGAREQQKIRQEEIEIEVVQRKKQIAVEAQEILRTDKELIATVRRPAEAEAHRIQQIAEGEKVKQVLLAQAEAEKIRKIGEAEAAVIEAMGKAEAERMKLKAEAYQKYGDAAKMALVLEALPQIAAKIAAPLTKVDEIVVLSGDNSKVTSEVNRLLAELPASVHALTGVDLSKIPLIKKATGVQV
The test is described as follows: co-IP; Beas2B lysate immunoprecipitated with anti-Flot-2 antibody, protein A/G Sepharose, Western blot; cells exposed to hyperoxia (95% oxygen, 4h) or room air.

Consider “Fas (CD95/APO-1/TNFRSF6) (from UniProt P25445 26-335) (receptor)”, for which the binding result was “binds”.

Regarding “Fas associated death domain (from UniProt Q13158 1-208)”, the binding result was “binds”.

Turning to “caspase-8 (FLICE) (from UniProt Q14790 1-479) (enzyme)”, the binding entry is reported as “binds”.
